Several values for one entry are separate records, joined by “and”; a condition that tells them apart may be missing. Equal values may be shown once. The source gives many values for each of these; only a part stands here.

The nature of the data set: Blood concentrations after subcutaneous dosing in rat PK/PD studies. The conditions noted are these: for blood concentration, individual rat: 14-day study; for PK, blood concentration, individual rat: 20 mg/kg SC single dose, 7-day study. It is filed as in vivo. The procedure: Female CD rats (7–8 weeks old on arrival, Charles River Ltd.) were placed into groups using a randomization schedule based on body weight prior to the study start. All animals were acclimatized for a minimum of one week prior to the experiment commencing. […] PROTAC 4 was dissolved in saline with the pH adjusted to 5.0 with sodium hydroxide (1 M).

`CN[C@@H](C)C(=O)N[C@H](C(=O)N1CCC[C@H]1c1nc(C(=O)c2ccc(F)cc2)cs1)C1CCN(C(=O)c2cnc(N3CCN(CCOc4cc5ncnc(Nc6n[nH]c(C)c6C)c5cc4S(=O)(=O)C(C)(C)C)CC3)nc2)CC1` [PROTAC 4]: the “blood concentration, individual rat” value is 68.1 ng/mL and 18.6 ng/mL and 44.8 ng/mL and 40.1 ng/mL and 110 ng/mL (1 mg/kg SC, 0.25 h); 64.2 ng/mL and 59.6 ng/mL and 369 ng/mL and 74.5 ng/mL and 40.1 ng/mL (1 mg/kg SC, 0.5 h); 64.9 ng/mL and 15.9 ng/mL and 32.1 ng/mL and 123 ng/mL and 23 ng/mL (1 mg/kg SC, 1 h); 113 ng/mL and 55.4 ng/mL and 131 ng/mL and 67.9 ng/mL and 26.6 ng/mL (1 mg/kg SC, 2 h); 85.1 ng/mL and 39.6 ng/mL and 149 ng/mL and 59.9 ng/mL and 25.8 ng/mL (1 mg/kg SC, 4 h); 33.2 ng/mL and 5.06 ng/mL and 25.8 ng/mL and 11.3 ng/mL and 14.9 ng/mL (1 mg/kg SC, 8 h). The “blood concentration, individual rat” value by setting is: (1 mg/kg SC, 24 h) 5.48 ng/mL and 5.45 ng/mL and 7.88 ng/mL and 6.3 ng/mL; (1 mg/kg SC, 72 h) 1.45 ng/mL; (5 mg/kg SC, 0.25 h) 173 ng/mL and 47.7 ng/mL; (5 mg/kg SC, 0.5 h) 43 ng/mL and 52.6 ng/mL and 142 ng/mL and 113 ng/mL and 84.2 ng/mL; (5 mg/kg SC, 1 h) 33 ng/mL and 208 ng/mL and 129 ng/mL and 125 ng/mL and 37.6 ng/mL; (5 mg/kg SC, 2 h) 110 ng/mL and 164 ng/mL and 40.5 ng/mL and 87.3 ng/mL and 102 ng/mL. The “blood concentration, individual rat” value by setting is: (5 mg/kg SC, 4 h) 108 ng/mL and 118 ng/mL and 158 ng/mL and 74.2 ng/mL and 59.6 ng/mL; (5 mg/kg SC, 8 h) 152 ng/mL and 148 ng/mL and 114 ng/mL and 108 ng/mL and 43.4 ng/mL; (5 mg/kg SC, 24 h) 30.8 ng/mL and 42.6 ng/mL and 41.8 ng/mL and 41.3 ng/mL; (5 mg/kg SC, 168 h) 3 ng/mL and 3.99 ng/mL and 3.05 ng/mL and 3.69 ng/mL. Besides, the “PK, blood concentration, individual rat” value (1 h) is on record as 131 ng/mL and the “PK, blood concentration, individual rat” value (8 h) stood at 262 ng/mL.

The record behind these values is article PMC7083851, “Extended pharmacodynamic responses observed upon PROTAC-mediated degradation of RIPK2” (Communications Biology, 2020).
